# Only a part is listed here, and it is no random draw.
# By UniProt entry, the sequences of proteins in these tests, tags left out. Where a name states a change or a piece, a line headed by the entry shows the natural chain unless it says otherwise.
# UniProt Q14008: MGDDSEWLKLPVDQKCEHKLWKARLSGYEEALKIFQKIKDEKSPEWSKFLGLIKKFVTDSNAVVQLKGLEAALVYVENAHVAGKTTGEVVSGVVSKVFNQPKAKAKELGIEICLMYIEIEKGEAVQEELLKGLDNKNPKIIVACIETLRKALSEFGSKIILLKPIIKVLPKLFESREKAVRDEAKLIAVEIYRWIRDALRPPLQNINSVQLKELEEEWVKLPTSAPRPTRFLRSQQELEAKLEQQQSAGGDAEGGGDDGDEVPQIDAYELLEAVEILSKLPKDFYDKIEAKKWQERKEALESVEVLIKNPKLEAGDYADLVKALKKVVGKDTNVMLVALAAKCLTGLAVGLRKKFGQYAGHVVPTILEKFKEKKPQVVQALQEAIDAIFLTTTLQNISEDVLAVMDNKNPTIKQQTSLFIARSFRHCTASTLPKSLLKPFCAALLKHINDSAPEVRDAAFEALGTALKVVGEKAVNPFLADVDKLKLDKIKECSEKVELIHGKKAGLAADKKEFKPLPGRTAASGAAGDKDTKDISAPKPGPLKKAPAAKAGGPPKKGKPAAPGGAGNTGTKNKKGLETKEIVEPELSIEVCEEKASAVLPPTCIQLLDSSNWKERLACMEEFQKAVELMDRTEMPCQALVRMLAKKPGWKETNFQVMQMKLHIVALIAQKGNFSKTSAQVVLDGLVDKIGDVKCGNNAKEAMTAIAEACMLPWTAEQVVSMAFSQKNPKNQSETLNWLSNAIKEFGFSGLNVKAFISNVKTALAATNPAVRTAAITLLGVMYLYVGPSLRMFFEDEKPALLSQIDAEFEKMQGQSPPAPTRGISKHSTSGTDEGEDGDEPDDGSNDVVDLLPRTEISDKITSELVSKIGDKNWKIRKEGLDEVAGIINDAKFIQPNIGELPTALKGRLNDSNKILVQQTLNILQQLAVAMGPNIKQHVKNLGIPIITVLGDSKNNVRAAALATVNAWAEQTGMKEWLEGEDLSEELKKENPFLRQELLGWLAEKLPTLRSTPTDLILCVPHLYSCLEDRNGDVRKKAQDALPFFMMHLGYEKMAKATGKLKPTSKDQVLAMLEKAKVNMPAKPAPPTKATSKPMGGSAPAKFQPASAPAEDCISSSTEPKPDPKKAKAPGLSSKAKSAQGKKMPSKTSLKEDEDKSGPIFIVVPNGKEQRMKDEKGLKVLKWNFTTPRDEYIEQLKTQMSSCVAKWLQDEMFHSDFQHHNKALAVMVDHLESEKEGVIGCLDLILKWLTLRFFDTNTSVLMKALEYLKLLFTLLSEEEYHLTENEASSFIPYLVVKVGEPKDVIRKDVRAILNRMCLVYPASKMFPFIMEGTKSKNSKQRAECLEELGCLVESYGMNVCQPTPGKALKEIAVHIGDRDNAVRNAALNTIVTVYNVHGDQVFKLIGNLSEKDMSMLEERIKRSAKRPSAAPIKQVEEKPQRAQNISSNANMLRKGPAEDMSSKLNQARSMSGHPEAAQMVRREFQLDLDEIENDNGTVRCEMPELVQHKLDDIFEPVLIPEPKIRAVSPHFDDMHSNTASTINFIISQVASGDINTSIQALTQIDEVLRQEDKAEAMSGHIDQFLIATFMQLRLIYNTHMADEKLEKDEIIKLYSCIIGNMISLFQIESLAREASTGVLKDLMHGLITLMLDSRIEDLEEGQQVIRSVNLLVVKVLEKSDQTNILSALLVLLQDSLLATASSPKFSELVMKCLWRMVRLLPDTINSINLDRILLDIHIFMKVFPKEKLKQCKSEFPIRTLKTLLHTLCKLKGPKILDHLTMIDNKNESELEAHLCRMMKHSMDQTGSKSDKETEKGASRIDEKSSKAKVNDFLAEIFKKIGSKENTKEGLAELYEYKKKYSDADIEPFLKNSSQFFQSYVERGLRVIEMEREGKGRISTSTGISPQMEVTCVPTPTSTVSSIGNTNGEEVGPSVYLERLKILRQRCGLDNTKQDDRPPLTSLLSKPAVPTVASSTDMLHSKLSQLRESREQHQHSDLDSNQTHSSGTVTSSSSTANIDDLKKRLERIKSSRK
# UniProt Q14168: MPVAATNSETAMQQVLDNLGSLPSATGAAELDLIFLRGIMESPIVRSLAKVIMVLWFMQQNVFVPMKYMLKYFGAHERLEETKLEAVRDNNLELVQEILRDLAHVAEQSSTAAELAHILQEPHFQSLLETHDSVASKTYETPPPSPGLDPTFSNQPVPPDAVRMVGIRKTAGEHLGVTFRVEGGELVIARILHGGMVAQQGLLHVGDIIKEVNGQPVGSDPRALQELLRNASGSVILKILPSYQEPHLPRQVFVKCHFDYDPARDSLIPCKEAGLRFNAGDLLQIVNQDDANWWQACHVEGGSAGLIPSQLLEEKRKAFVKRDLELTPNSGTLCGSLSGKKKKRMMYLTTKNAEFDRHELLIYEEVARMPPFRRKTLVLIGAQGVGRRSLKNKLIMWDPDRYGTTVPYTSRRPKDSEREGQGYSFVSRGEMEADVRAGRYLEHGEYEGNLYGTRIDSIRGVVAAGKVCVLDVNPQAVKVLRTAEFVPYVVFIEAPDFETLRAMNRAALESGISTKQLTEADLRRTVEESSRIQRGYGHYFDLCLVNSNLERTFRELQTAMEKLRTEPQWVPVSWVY
# UniProt Q15019: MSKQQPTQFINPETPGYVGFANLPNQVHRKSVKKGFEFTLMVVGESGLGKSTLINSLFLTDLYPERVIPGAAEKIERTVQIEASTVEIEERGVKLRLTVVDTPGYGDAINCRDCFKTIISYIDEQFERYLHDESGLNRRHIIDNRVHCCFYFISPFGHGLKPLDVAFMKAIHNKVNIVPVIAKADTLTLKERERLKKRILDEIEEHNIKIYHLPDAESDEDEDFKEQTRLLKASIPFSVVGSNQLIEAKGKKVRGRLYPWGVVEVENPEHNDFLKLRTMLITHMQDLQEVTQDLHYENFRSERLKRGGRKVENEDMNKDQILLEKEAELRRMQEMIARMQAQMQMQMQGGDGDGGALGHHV
# UniProt Q14684: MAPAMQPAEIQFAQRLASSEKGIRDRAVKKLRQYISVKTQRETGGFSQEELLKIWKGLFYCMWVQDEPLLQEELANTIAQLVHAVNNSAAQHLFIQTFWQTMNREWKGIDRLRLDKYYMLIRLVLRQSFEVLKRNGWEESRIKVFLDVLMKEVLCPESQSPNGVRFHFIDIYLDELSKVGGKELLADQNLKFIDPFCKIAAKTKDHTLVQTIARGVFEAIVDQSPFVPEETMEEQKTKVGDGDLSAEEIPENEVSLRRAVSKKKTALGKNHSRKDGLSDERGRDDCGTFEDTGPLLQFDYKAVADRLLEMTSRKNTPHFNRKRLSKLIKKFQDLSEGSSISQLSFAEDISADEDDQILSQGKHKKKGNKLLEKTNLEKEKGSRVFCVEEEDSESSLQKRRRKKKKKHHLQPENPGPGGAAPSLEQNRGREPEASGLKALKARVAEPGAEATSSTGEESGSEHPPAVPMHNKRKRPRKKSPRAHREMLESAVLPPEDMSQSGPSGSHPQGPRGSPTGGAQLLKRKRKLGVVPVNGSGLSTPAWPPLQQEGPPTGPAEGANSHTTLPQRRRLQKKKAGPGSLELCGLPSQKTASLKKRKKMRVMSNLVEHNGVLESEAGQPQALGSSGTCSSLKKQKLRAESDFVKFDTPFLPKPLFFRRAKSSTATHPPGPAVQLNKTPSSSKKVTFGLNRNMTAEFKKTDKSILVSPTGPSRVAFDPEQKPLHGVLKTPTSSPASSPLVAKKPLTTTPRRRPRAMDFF
# UniProt Q13564: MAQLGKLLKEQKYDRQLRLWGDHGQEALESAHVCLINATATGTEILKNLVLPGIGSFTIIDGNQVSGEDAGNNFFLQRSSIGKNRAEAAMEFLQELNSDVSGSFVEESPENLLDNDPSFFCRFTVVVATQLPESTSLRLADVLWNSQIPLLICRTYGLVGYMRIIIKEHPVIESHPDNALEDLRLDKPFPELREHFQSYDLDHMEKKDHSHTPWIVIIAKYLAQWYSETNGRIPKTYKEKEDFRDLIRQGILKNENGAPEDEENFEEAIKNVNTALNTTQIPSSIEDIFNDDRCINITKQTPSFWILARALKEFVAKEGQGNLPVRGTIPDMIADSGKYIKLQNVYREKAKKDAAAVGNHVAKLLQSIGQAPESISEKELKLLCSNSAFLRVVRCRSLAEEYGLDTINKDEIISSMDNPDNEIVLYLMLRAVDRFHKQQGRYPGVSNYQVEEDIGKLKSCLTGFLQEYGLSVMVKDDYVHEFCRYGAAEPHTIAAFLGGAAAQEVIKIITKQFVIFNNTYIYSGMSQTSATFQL
# UniProt Q14697: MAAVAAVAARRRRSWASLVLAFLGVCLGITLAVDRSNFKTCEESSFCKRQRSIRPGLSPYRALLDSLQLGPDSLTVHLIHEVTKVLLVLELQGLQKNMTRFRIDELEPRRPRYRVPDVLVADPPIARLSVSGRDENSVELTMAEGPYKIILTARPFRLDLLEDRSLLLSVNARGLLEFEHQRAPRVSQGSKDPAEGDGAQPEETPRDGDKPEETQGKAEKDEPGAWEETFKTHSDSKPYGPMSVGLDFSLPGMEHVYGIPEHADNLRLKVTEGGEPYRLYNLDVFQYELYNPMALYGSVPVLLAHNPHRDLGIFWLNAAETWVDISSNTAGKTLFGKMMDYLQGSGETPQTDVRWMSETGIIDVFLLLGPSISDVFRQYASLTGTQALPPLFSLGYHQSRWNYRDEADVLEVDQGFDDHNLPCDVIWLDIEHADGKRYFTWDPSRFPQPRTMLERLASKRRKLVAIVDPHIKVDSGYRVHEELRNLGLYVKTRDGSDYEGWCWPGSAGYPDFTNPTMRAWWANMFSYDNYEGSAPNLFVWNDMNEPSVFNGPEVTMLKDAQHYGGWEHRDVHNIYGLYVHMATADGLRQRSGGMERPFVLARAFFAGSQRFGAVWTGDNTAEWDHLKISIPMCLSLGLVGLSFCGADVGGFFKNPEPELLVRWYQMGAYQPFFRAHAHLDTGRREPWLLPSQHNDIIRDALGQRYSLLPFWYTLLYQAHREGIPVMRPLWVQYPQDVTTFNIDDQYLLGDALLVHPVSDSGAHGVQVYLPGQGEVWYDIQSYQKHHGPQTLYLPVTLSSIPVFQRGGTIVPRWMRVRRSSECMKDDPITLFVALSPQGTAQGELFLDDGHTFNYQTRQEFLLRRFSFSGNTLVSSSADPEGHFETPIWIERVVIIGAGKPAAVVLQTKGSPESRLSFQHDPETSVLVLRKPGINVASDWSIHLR
# UniProt Q14678: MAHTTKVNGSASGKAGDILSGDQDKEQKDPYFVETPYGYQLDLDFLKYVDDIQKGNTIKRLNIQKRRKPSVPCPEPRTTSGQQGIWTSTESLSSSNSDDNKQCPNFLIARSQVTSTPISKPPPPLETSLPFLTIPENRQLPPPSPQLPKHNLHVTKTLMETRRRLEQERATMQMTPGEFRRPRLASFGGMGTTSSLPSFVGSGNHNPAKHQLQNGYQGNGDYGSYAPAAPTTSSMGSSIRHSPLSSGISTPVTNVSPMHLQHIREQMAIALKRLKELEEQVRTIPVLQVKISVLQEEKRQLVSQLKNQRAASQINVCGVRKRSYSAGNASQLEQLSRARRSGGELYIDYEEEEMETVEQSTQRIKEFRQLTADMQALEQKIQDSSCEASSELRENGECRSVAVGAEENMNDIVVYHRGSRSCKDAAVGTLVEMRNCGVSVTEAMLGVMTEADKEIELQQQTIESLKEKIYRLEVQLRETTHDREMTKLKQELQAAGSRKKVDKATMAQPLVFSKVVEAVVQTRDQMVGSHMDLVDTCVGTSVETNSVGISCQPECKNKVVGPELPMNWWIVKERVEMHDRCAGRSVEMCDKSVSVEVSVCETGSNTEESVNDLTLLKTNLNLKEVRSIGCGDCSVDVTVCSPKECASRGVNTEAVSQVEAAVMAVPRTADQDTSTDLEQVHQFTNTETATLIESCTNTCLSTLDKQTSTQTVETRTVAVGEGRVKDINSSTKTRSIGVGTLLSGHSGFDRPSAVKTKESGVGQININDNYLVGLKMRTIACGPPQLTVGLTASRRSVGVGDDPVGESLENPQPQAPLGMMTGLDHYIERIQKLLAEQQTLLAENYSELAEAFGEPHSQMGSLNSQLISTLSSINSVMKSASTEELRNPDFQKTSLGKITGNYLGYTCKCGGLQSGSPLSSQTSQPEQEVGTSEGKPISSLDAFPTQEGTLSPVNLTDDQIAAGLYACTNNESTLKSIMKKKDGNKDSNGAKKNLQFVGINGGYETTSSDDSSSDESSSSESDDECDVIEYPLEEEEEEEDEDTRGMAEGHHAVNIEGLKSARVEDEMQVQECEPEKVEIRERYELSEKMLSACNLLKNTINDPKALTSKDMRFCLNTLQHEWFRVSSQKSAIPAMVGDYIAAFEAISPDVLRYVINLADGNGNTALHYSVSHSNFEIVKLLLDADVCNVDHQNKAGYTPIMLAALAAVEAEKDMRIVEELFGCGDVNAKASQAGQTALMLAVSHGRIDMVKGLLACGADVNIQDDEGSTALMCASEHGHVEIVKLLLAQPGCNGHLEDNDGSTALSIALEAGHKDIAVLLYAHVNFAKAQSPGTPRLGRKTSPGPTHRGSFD
# Compound: COC(=O)C#Cc1ccccc1 [methyl 3-phenylpropiolate]
# Assay: log2 ratio of iodoacetamide-alkyne labeling of the cysteine site, DMSO over compound (competition); higher = stronger covalent engagement of the cysteine by the compound, active = 1 or more
# Conditions: 500 µM; treatment time 1 h; system: HEK293T cell lysate
# In short: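 After 1 h at ambient temperature with vehicle or electrophile (500 µM), HEK293T lysate (2 mg/mL) was labelled for 1 h with iodoacetamide alkyne and clicked to sCIP-TMT reagents. Pooled samples were trypsin-digested overnight at 37 °C, streptavidin-enriched, acid-eluted and analysed by Orbitrap Eclipse LC-MS/MS with FAIMS, then quantified in FragPipe over three replicates with duplicate channels. A cysteine's log2 competition ratio is its mean control-channel over mean compound-channel reporter intensity. Cysteines quantified in only one replicate were not included.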
row,Target,log2 ratio of iodoacetamide-alkyne labeling
1,CKAP5 C1203 (UniProt Q14008),inactive: 0.44
2,DYNC1H1 C1999 (UniProt Q14204),inactive: 0.449
3,SNX1 C318 (UniProt Q13596),inactive: 0.262
4,MPP2 C334 (UniProt Q14168),inactive: 0.598
5,GAPVD1 C1129 (UniProt Q14C86),inactive: 0.233
6,DYNC1H1 C4216 (UniProt Q14204),inactive: 0.162
7,LAGE3 C23 (UniProt Q14657),inactive: 0.594
8,UniProt Q15019_C111,inactive: 0.706
9,ITPR3 C2668 (UniProt Q14573),inactive: 0.381
10,KPNB1 C158 (UniProt Q14974),inactive: 0.282
11,NUMA1 C803 (UniProt Q14980),inactive: 0.588
12,GOLGB1 C1257 (UniProt Q14789),inactive: 0.301
13,UBE4A C1002 (UniProt Q14139),inactive: 0.466
14,RBM39 C478 (UniProt Q14498),inactive: 0.467
15,ESPL1 C1369 (UniProt Q14674),inactive: 0.218
16,FHL3 C153 (UniProt Q13643),inactive: 0.146
17,UniProt Q14562_C123,inactive: 0.177
18,NCAPD2 C439 (UniProt Q15021),inactive: 0.313
19,RRP1B C628 (UniProt Q14684),inactive: 0.838

row,Target,log2 ratio of iodoacetamide-alkyne labeling
1,TRIM25 C186 (UniProt Q14258),inactive: 0.237
2,NAE1 C384 (UniProt Q13564),inactive: -0.115
3,SAFB2 C672 (UniProt Q14151),inactive: 0.803
4,STIM1 C49 (UniProt Q13586),inactive: 0.691
5,GAPVD1 C1220 (UniProt Q14C86),inactive: 0.244
6,KPNB1 C826 (UniProt Q14974),inactive: 0.76
7,GNL2 C362 (UniProt Q13823),inactive: 0.0745
8,ZNF638 C1930 (UniProt Q14966),inactive: -0.212
9,CKAP5 C1113 (UniProt Q14008),inactive: 0.0583
10,BMS1 C725 (UniProt Q14692),active: 1.27
11,GANAB C822 (UniProt Q14697),inactive: 0.538
12,FHL1 C36 (UniProt Q13642),inactive: 0.286
13,KANK1 C781 (UniProt Q14678),inactive: 0.231
14,POLA2 C392 (UniProt Q14181),inactive: 0.0968
15,CBX2 C340 (UniProt Q14781),inactive: 0.654
16,BOP1 C404 (UniProt Q14137),inactive: 0.271
17,PEX6 C798 (UniProt Q13608),inactive: 0.255
18,SPCS2 C17 (UniProt Q15005),inactive: 0.769

# Retrieved one by one from the list above (3):
row,Target,log2 ratio of iodoacetamide-alkyne labeling
2,NAE1 C384 (UniProt Q13564),inactive: -0.115
15,ESPL1 C1369 (UniProt Q14674),inactive: 0.218
1,CKAP5 C1203 (UniProt Q14008),inactive: 0.44
